# Measured values from the supplement of paper PMC8256030.
# Several values for one entry are separate records, joined by “and”; a condition that tells them apart may be missing. Equal values may be shown once. Where a name gives a salt, the structure may show the parent alone. This is one part of the list. Repeats in this data set agree poorly, so a single value says little.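 HEK293T cells were given each compound shortly before transfection with a reporter in which red mCherry is followed by the SARS-CoV-2 frameshift element and then GFP in the −1 frame, so GFP appears only after frameshifting.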
# Tested on: SARS-CoV-2 -1 PRF reporter mCherry-FSE-GFP(-1)
# Assay: mCherry (red) intensity as percent of control; higher = higher upstream reporter expression
# Settings: 10 µM; 24 h; HEK293T
row,SMILES,mCherry
1,COC[C@@H](NC(C)=O)C(=O)NCc1ccccc1 [lacosamide],92.2%
2,COc1ccc2c3c1O[C@H]1C(=O)CC[C@@]4(O)[C@@H](C2)N(C)CC[C@]314 [oxycodone],97.7%
3,Cc1ccc(NC2=NCCN2)c(Cl)c1 [tolonidine],43.6%
4,CCC1(c2ccccc2)CCC(=O)NC1=O (stereo not given) [glutethimide],101%
5,CNC(C)CC1CCCCC1 (stereo not given) [propylhexedrine],94.5%
6,Cc1ncc(CNC(=O)N(CCCl)N=O)c(N)n1 [nimustine],113%
7,C[C@]12CC[C@H]3[C@@H](CCC4=C(Cl)C(=O)CC[C@@]43C)[C@@H]1CC[C@@H]2O [clostebol],94.4%
8,NC(=O)C[S@@+]([O-])C(c1ccccc1)c1ccccc1 [armodafinil],106%
9,CC(C)NC1CCn2c(=O)[nH]c3cccc(c32)C1O (stereo not given) [zilpaterol],97.3%
10,CN1[C@@H]2C[C@@H](OC(=O)[C@H](CO)c3ccccc3)C[C@H]1[C@@H]1O[C@@H]12 [Scopolamine],95.9%
11,C=CCC1(C(C)CCC)C(=O)NC(=O)NC1=O (stereo not given) [secobarbital],91.7%
12,COc1ccc2c3c1O[C@H]1[C@@H](OC(C)=O)C=C[C@H]4[C@@H](C2)N(C)CC[C@@]341,97.7%
13,CC1Sc2c(C(=O)O)c(=O)c3cc(F)c(N4CCNCC4)cc3n21 (stereo not given) [ulifloxacin],98.1%
14,CCn1cc(C(=O)O)c(=O)c2cc3c(cc21)OCO3 [oxolinic acid],131%
15,Cc1cc(O)ccc1Cl,116%
16,Cc1ccccc1-n1c(/C=C/c2ccccn2)nc2ccccc2c1=O [piriqualone],65.6%
17,C[C@]12CC[C@H]3[C@@H](CCC4=CC(=O)CC[C@@]43C)[C@@H]1CC[C@@H]2O [testosterone],92% and 98.9%
18,Oc1ccc2c3c1O[C@H]1[C@@H](O)CC[C@@]4(O)[C@@H](C2)N(CC2CCC2)CC[C@]314 [Nalbuphine],102%
19,C#CCN(C)[C@H](C)Cc1ccccc1 [(R)-(-)-Deprenyl·HCl],79.7%
20,OC1(c2ccc(Cl)cc2)c2ccccc2C2=NCCN21 (stereo not given) [mazindol],99.4%

# In a second layout: two of the compounds above.
row | SMILES | mCherry
13 | CC1Sc2c(C(=O)O)c(=O)c3cc(F)c(N4CCNCC4)cc3n21 (stereo not given) [ulifloxacin] | 98.1%
18 | Oc1ccc2c3c1O[C@H]1[C@@H](O)CC[C@@]4(O)[C@@H](C2)N(CC2CCC2)CC[C@]314 [Nalbuphine] | 102%

# (cont.)

row,SMILES,mCherry
1,NC(=O)C[S+]([O-])C(c1ccccc1)c1ccccc1 (stereo not given) [modafinil],110%
2,O=C1Nc2ccc(Cl)cc2C(c2ccccc2Cl)=NC1O (stereo not given) [lorazepam],88.8%
3,CC(C)(C)NCC(O)c1ccc(O)c(O)c1 (stereo not given) [colterol],104%
4,Cc1ccc(N=CN(C)C=Nc2ccc(C)cc2C)c(C)c1,91.4%
5,CCN(CC)CCN1C(=O)CN=C(c2ccccc2F)c2cc(Cl)ccc21 [flurazepam],104%
6,CCNC1(c2cccs2)CCCCC1=O (stereo not given),115%
7,O=[N+]([O-])C(Br)(CO)CO [bronopol],101%
8,Oc1ccc2c3c1O[C@H]1c4oc5ccccc5c4C[C@@]4(O)[C@@H](C2)N(CC2CC2)CC[C@]314 [Naltriben methanesulfonate hydrate],76.1%
9,CN1C[C@H](C(=O)N[C@]2(C)O[C@@]3(O)[C@@H]4CCCN4C(=O)[C@H](Cc4ccccc4)N3C2=O)C=C2c3cccc4[nH]cc(c34)C[C@H]21,103%
10,CC(C)(O)C(Cl)(Cl)Cl,107%
11,NCC1(CC(=O)O)CCCCC1,88.3%
12,NN=C(N)N,107%
13,CN1C(=O)CN=C(c2ccccc2)c2cc(Cl)ccc21 [diazepam],94.8%
14,C=CCN1CC[C@]23CCCC[C@H]2[C@H]1Cc1ccc(O)cc13 [Lorfan],106%
15,COC(=O)[C@@H]1[C@H]2CC[C@@H](C[C@@H]1O)N2C,84.1%
16,CN1C(=O)[C@@H](NC(=O)c2cc3ccccc3[nH]2)N=C(c2ccccc2)c2ccccc21 [devazepide],34.4%
17,CCCN1CCC[C@@H]2Cc3n[nH]cc3C[C@H]21 [quinpirole],108%
18,CCCC[N+]1(C)[C@H]2CC(OC(=O)C(CO)c3ccccc3)C[C@H]1[C@H]1O[C@H]12 (stereo not given in full) [Scopolamine N-butyl],94.9%
19,[O-][n+]1ccccc1[S-].[O-][n+]1ccccc1[S-].[Zn+2],70.3%
20,Clc1ccc(C(OCCN2CCCCC2)c2ccccc2)cc1 (stereo not given) [cloperastine],151%
